{"sequences": {"note": "Chains of the proteins cited; added tags and fusions are not shown. Lines headed by an entry give the natural chain unless they say otherwise; changes in a name come on top.", "UniProt P18054": "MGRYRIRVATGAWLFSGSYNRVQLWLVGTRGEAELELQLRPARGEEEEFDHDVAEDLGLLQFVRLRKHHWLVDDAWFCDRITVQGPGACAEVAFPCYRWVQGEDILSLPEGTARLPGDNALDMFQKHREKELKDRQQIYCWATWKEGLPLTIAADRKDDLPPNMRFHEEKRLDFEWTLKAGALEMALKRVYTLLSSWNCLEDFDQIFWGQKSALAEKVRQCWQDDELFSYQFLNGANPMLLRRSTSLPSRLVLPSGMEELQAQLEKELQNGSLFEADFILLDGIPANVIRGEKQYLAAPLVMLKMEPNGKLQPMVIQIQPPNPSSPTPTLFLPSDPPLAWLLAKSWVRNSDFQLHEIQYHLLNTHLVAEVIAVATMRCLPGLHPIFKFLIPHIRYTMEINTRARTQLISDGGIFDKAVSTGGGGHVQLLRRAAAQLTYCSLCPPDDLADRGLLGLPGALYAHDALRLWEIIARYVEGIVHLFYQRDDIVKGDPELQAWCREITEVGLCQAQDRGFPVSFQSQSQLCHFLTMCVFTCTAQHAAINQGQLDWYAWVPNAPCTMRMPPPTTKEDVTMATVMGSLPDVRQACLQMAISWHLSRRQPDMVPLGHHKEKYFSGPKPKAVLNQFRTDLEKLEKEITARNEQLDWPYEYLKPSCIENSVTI"}, "source": "PubChem BioAssay AID1671190", "about": "(National Center for Advancing Translational Sciences (NCATS), 2021)", "note": "Several values for one entry are separate records, joined by “and”; a condition that tells them apart may be missing. Identical values can stand only once. Screen size: about 580,000 compounds; about 6,100 (1.1%) were called active. This list was built around the results that the source calls inconclusive (neither active nor inactive); the mix of calls is not that of the screen. The call rests on the fitted dose curve; in most records, active means well fitted inhibition curve with a large enough effect; inconclusive means small, poorly fitted or top-dose-only effect, or another doubt; inactive means no such curve, though single readings can be large or run the other way. Where the call is inconclusive, the potency comes from a doubtful curve fit. Potency means the concentration at half of the fitted maximal effect."}
{"biological_target": "Polyunsaturated fatty acid lipoxygenase ALOX12 (Homo sapiens) (UniProt P18054)", "experiment": "Primary qHTS assay for inhibitors of human arachidonate 12S-lipoxygenase (ALOX12): Round 2", "details": "purified 12hLO, xylenol orange hydroperoxide absorbance; series mostly up to 108 µM", "outline": "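Purified human 12hLO (150 nM final) in 25 mM Hepes, 0.01% Triton X-100, pH 7.0 was preincubated 15 min at room temperature with compound. Then 40 uM arachidonic acid was added, 30 min. Hydroperoxide was read by Fe-XO absorbance ratio 573/405 nm.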"}
{"compound": "O=C(O)COCC(=O)N1CC[C@@H]2[C@H]1C(=O)N(c1ccc(F)c(Cl)c1)C(=O)N2Cc1ccccc1", "Potency": "inconclusive: 12.6 µM [inhibitor, full curve]"}
{"compound": "O=C(O)Cn1ccc2cc(OCCc3cccc(-c4cncnc4)c3)cnc21", "Potency": "inconclusive: 56.2 µM [inhibitor, full curve]"}
{"compound": "S=C(NCCc1ccccc1)NC1CCCC1", "Potency": "inconclusive: 89.1 µM [inhibitor, single point]"}
{"compound": "O=C(CSc1nc(-c2cccs2)cc(C(F)(F)F)n1)Nc1cc(OCC(F)(F)F)cc([N+](=O)[O-])c1", "Potency": "inconclusive: 15.8 µM [inhibitor, full curve, poor fit]"}
{"compound": "CCc1cc(=O)n2[nH]c(-c3ccccc3)c(-c3ccccc3)c2n1", "Potency": "inactive"}
{"compound": "COc1ccc(C(=O)c2sc(Nc3cccc(C)c3)nc2N)cc1", "Potency": "inconclusive: 79.4 µM [inhibitor, partial curve, poor fit]"}
{"compound": "COc1ccc(C2C(C(=O)c3ccco3)=C(O)C(=O)N2CCc2ccccc2)cc1OC", "note": "(stereo not given)", "Potency": "inconclusive: 1.41 µM [inhibitor, full curve]"}
{"compound": "O=C(Nc1cccc(S(=O)(=O)c2cccc(NC(=O)C3CC3)c2)c1)C1CC1", "Potency": "inactive"}
{"compound": "O=C(Nc1ccccc1C(=O)O)c1cc(S(=O)(=O)N2CCCCC2)c(Cl)cc1Cl", "Potency": "inconclusive: 35.5 µM [inhibitor, partial curve]"}
{"compound": "CC(C)(C)N(Cc1ccccc1)C(=O)COC(=O)c1ccc2ccccc2n1", "Potency": "inconclusive: 31.6 µM [inhibitor, partial curve, poor fit]"}
{"compound": "C=CCc1cc(Cl)ccc1OCCOCCNC(C)CC", "note": "(stereo not given)", "Potency": "inconclusive: 2.51 µM [inhibitor, full curve, poor fit]"}
{"compound": "COCCNC(=S)N[C@H]1C[C@H]2C(=O)NC[C@@H](CCC(=O)NCc3ccccc3)N2C1", "Potency": "inconclusive: 39.8 µM [inhibitor, full curve]"}
{"compound": "CCn1cc(Br)c(C(=O)Nc2ccc(F)cc2F)n1", "Potency": "inactive"}
{"compound": "O=C1COCC(=O)N1CCc1c[nH]c2ccccc12", "Potency": "inconclusive: 112 µM [inhibitor, single point]"}
{"compound": "COc1ccc(-c2nnc(SCC(=O)NCC3CCCO3)o2)cc1", "note": "(stereo not given)", "Potency": "inconclusive: 112 µM [inhibitor, single point]"}
{"compound": "COC(=O)c1c(-c2ccccc2)csc1NC(=O)CN1CCOCC1", "Potency": "inactive"}
{"compound": "Cc1ccc(-c2nc3ccccc3c(=O)n2CCN2CCOCC2)cc1", "Potency": "inconclusive: 39.8 µM [inhibitor, partial curve, poor fit] and inconclusive: 44.7 µM [inhibitor, partial curve, poor fit]"}
{"compound": "Cc1c(CNCc2ccc(Cl)cc2)c(C(=O)O)c(C)n1Cc1ccc(F)cc1", "Potency": "inactive"}
{"compound": "COc1ccccc1COCC(O)CN(CC(O)COCc1ccccc1OC)C12CC3CC(CC(C3)C1)C2", "note": "(stereo not given)", "Potency": "inactive"}
{"compound": "CCOc1ccc(CNS(=O)(=O)c2ccc3[nH]c4c(c3c2)CCCC4)cc1OC", "Potency": "inconclusive: 31.6 µM [inhibitor, full curve, poor fit]"}
{"compound": "O=C(Nc1cccc(NC(=O)N2CCN(c3ccccc3)CC2)c1)N1CCN(c2ccccc2)CC1", "Potency": "inconclusive: 126 µM [inhibitor, single point]"}
{"compound": "N#CC1=C(N)Oc2c(c(=O)[nH]c3ccccc23)C1c1ccc(F)cc1", "note": "(stereo not given)", "Potency": "inconclusive: 44.7 µM [inhibitor, partial curve, poor fit]"}
{"compound": "CCC1CCc2c(sc3nc(SCC(=O)NCc4ccco4)n(-c4ccccc4)c(=O)c23)C1", "note": "(stereo not given)", "Potency": "inactive"}
{"compound": "CCCCCNc1c2c(nc3ccccc13)CC(C)(C)CC2=O", "Potency": "inconclusive: 0.282 µM [inhibitor, full curve]"}
{"compound": "COc1ccc(C(CNC(=O)C(=O)Nc2ccc3c(c2)OCO3)N2CCN(C)CC2)cc1", "note": "(stereo not given)", "Potency": "inconclusive: 79.4 µM [inhibitor, single point]"}
{"compound": "Cc1nn(Cc2ccc(C(=O)Nc3nc4c(C)cccc4s3)o2)c(C)c1Br", "Potency": "inconclusive: 50.1 µM [inhibitor, partial curve, poor fit]"}
{"compound": "CCN1CCc2c(sc(NC(=S)NC(=O)c3ccccc3)c2C#N)C1", "Potency": "inconclusive: 7.94 µM [inhibitor, full curve, poor fit]"}
{"compound": "Cc1nc(-c2ccc(CN3CCCC(CN)C3)cc2)[nH]c(=O)c1C", "note": "(stereo not given)", "Potency": "inconclusive: 11.2 µM [inhibitor, full curve, poor fit]"}
{"compound": "COCCC1(C(=O)O)CCCN(C(=O)c2cc(F)ccc2OC)C1", "note": "(stereo not given)", "Potency": "inactive"}
{"compound": "Cc1cccc(-c2n[nH]c(=S)n2C)c1", "Potency": "inconclusive: 39.8 µM [inhibitor, partial curve, poor fit]"}
{"compound": "O=C(NCC1CCN(c2cc(-c3ccc(F)cc3)[nH]n2)CC1)c1ccc[nH]1", "Potency": "inactive"}
{"compound": "COc1ccc(N2CCN(C(=O)COC(=O)Cc3ccc(F)cc3)CC2)cc1", "Potency": "inactive"}
{"compound": "O=C(NC1CCCC1)c1cc(-c2ccco2)nc2ccccc12", "Potency": "inconclusive: 44.7 µM [inhibitor, partial curve, poor fit]"}
{"compound": "Cc1cc(-c2ccc(S(=O)(=O)N3CCN(c4ccccc4)CC3)s2)n[nH]1", "Potency": "inconclusive: 39.8 µM [inhibitor, partial curve, poor fit]"}
{"compound": "COc1ccc2ccc(O)c(CN(C)CC(=O)Nc3ccccc3C(F)(F)F)c2c1", "Potency": "active: 7.08 µM"}
{"compound": "COc1ccc(CC(=O)Nc2ccc(S(=O)(=O)Nc3ncccn3)cc2)cc1", "Potency": "inconclusive: 17.8 µM [inhibitor, partial curve, poor fit]"}
{"compound": "CCOc1ccc(-c2cc(C(=O)NCCCn3ccnc3)c3cc(Br)ccc3n2)cc1", "Potency": "inconclusive: 112 µM [inhibitor, partial curve, poor fit]"}
{"compound": "COc1ccc(OC)c(S(=O)(=O)N2CCC(C(=O)Nc3cccc(C(F)(F)F)c3)CC2)c1", "Potency": "inconclusive: 44.7 µM [inhibitor, partial curve, poor fit]"}
{"compound": "Fc1ccc(-c2nc(COc3ccccc3Br)co2)cc1", "Potency": "inconclusive: 22.4 µM [inhibitor, partial curve, poor fit]"}
{"compound": "Cc1ccc(Nc2nc(N)nc(CSc3nncn3C)n2)cc1", "Potency": "inactive"}
{"compound": "Cc1ccc(C)c(NC(=O)CCN2CCc3ccccc3C2)c1", "Potency": "inactive"}
{"compound": "Cc1ccc(C2/C(=C(\\O)c3cnn(-c4ccccc4)c3C)C(=O)C(=O)N2CCN(C)C)o1", "note": "(stereo not given)", "Potency": "inconclusive: 1.58 µM [inhibitor, full curve, poor fit]"}
{"compound": "CN(CC(=O)Nc1cccc(F)c1)Cc1ncc(-c2ccccc2)o1", "Potency": "inactive"}
{"compound": "Cc1cccc(C)c1NC(=O)C(c1ccccc1OC(F)(F)F)N1CCN(c2ccc(F)cc2)CC1", "note": "(stereo not given)", "Potency": "inconclusive: 25.1 µM [inhibitor, partial curve]"}
{"compound": "Cc1ccc(N/N=C/c2c(O)cc(C)oc2=O)cc1", "Potency": "inconclusive: 31.6 µM [inhibitor, partial curve, poor fit]"}
{"compound": "CC(=O)Nc1ccc(NC(=O)c2csc(NC3CC3)n2)cc1", "Potency": "inconclusive: 15.8 µM [inhibitor, partial curve, poor fit]"}
{"compound": "O=C(CN1CCSCC1)N/N=C/c1ccccc1F", "Potency": "inconclusive: 0.282 µM [inhibitor, full curve, poor fit]"}
{"compound": "COc1ccccc1CC(=O)N1CCCc2ccccc21", "Potency": "inconclusive: 70.8 µM [inhibitor, partial curve, poor fit]"}
{"compound": "Cc1cc(OC(=O)c2ccc(S(=O)(=O)N3CCOCC3)cc2)c([N+](=O)[O-])c(=O)[nH]1", "Potency": "inactive"}
{"compound": "COc1ccc(Nc2nc3ccccc3nc2NS(=O)(=O)c2cccs2)cc1Cl", "Potency": "inconclusive: 39.8 µM [inhibitor, partial curve, poor fit]"}
{"compound": "CCOc1ccc(/C=N/OCC(=O)NCc2ccco2)cc1", "Potency": "inactive"}
{"compound": "O=C(c1ccc2ncsc2c1)N1CCN(c2nc3c(F)cccc3s2)CC1", "Potency": "inactive"}
{"compound": "COc1ccccc1CNC(=O)COC(=O)c1ccc(N2CCCC2=O)cc1", "Potency": "inconclusive: 63.1 µM [inhibitor, partial curve, poor fit]"}
{"compound": "CC(C)n1c(SCc2nc3ccccc3c(=O)[nH]2)nnc1-c1ccco1", "Potency": "inconclusive: 79.4 µM [inhibitor, partial curve, poor fit]"}
{"compound": "CCc1nnc(NC(=O)CSc2nc3c([nH]c4ccccc43)c(=O)n2-c2cc(C)cc(C)c2)s1", "Potency": "inactive"}
{"compound": "CC1CCCCN1Cc1oc(CO)cc(=O)c1O", "note": "(stereo not given)", "Potency": "inconclusive: 0.708 µM [inhibitor, full curve, poor fit]"}
{"compound": "CN1CCN(S(=O)(=O)c2cccc(C(=O)N3CCN(c4ccccc4)CC3)c2)CC1", "Potency": "inactive"}
{"compound": "COc1ccc(C2=CN(Cc3ccccc3)C(c3ccccc3)CC2=O)cc1", "note": "(stereo not given)", "Potency": "inconclusive: 44.7 µM [inhibitor, partial curve, poor fit]"}
{"compound": "O=C(CN1C(=O)S/C(=C\\c2ccc(F)cc2)C1=O)Nc1ccc2oc(=O)ccc2c1", "Potency": "inconclusive: 50.1 µM [inhibitor, partial curve, poor fit]"}
{"compound": "Cc1cccc(CN2CCN(C3CN(Cc4cn(Cc5ccc(Cl)cc5)nn4)S(=O)(=O)C3)CC2)c1", "note": "(stereo not given)", "Potency": "inconclusive: 35.5 µM [inhibitor, partial curve]"}
{"compound": "COC(=O)C1=NN[C@H](C(=O)OC)[C@H]1c1ccccc1", "Potency": "inactive"}
{"compound": "O=[N+]([O-])c1ccc2nc(-c3ccc(Cl)cc3)[nH]c2c1", "Potency": "active: 20 µM"}
{"compound": "O=C(CSc1nc2cc(Cl)ccc2s1)Nc1cccc(F)c1", "Potency": "inactive"}
{"compound": "CCCNC(=O)c1cccc(NC(=O)Nc2ccccc2)c1", "Potency": "inactive"}
{"compound": "CCCCN1C[C@H](c2ccc(OC)cc2)[C@@H](CC(=O)Nc2ccc(Br)cc2)C1=O", "Potency": "inconclusive: 44.7 µM [inhibitor, partial curve, poor fit]"}
